Test results taken from publication PMC4729438.

Amino acid sequences for entries named in this document (tags omitted). A change or cut given only in a name is not applied to a line headed by its entry. Chains listed by the source or under a name are the forms on record and can include a tag or linker. Residues count along the entry.
UniProt P35637: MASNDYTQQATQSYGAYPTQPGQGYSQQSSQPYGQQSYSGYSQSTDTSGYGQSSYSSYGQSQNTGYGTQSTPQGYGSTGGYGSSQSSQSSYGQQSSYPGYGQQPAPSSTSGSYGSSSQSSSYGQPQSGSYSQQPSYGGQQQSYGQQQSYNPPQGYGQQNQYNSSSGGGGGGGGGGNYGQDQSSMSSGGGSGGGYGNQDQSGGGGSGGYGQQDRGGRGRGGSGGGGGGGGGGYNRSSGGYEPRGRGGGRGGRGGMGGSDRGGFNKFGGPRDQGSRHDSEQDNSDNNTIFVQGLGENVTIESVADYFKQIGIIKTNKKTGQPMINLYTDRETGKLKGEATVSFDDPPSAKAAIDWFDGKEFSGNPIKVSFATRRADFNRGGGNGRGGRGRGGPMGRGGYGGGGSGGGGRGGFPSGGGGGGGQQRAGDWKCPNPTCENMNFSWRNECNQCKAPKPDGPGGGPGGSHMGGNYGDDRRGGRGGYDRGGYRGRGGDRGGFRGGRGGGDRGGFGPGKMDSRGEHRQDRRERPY
UniProt P35579: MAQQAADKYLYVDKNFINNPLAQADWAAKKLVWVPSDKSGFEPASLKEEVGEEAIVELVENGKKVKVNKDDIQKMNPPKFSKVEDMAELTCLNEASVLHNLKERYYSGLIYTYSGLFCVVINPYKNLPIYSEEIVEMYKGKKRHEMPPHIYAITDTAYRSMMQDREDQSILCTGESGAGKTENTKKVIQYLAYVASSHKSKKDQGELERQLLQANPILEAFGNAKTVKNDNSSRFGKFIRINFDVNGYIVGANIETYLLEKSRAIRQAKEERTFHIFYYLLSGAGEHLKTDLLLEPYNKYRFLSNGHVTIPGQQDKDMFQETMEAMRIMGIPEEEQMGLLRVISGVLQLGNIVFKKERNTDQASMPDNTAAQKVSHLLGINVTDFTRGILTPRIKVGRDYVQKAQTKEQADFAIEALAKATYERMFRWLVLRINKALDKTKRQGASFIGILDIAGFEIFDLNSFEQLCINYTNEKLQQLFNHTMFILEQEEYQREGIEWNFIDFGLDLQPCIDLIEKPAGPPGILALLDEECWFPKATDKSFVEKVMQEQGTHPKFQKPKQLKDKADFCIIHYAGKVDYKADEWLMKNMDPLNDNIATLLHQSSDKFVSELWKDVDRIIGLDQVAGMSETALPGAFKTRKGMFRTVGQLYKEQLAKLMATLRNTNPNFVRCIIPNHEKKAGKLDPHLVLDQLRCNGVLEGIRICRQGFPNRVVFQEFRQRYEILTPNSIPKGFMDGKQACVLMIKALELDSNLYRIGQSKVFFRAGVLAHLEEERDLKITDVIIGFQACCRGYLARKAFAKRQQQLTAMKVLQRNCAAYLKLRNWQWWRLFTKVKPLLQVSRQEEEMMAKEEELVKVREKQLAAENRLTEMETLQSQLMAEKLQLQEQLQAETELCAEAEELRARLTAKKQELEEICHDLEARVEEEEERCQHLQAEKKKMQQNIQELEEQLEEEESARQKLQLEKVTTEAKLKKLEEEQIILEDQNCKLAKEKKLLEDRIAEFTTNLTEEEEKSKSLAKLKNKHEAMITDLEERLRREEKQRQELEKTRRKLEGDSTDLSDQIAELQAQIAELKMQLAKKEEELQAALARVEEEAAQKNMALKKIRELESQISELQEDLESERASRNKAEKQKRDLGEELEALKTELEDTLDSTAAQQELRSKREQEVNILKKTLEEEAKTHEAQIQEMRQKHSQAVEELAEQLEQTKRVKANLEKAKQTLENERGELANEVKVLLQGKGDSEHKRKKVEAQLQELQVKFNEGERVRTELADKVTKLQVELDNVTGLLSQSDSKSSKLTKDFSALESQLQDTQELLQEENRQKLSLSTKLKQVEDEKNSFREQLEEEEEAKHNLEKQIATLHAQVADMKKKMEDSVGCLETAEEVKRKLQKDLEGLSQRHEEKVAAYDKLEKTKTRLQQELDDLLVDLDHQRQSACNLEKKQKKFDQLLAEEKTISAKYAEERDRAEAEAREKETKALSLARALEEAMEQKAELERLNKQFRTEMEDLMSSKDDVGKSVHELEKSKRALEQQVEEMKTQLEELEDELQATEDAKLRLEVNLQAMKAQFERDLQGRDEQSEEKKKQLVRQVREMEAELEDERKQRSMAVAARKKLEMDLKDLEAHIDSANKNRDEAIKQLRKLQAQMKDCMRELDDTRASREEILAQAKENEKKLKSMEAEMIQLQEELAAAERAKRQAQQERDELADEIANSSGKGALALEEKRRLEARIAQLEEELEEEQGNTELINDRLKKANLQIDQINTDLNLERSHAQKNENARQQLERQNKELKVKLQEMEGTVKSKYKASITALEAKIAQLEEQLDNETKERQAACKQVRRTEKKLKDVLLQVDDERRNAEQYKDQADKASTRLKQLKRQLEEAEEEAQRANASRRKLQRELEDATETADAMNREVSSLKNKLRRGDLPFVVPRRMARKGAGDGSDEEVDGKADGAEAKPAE
UniProt P55060: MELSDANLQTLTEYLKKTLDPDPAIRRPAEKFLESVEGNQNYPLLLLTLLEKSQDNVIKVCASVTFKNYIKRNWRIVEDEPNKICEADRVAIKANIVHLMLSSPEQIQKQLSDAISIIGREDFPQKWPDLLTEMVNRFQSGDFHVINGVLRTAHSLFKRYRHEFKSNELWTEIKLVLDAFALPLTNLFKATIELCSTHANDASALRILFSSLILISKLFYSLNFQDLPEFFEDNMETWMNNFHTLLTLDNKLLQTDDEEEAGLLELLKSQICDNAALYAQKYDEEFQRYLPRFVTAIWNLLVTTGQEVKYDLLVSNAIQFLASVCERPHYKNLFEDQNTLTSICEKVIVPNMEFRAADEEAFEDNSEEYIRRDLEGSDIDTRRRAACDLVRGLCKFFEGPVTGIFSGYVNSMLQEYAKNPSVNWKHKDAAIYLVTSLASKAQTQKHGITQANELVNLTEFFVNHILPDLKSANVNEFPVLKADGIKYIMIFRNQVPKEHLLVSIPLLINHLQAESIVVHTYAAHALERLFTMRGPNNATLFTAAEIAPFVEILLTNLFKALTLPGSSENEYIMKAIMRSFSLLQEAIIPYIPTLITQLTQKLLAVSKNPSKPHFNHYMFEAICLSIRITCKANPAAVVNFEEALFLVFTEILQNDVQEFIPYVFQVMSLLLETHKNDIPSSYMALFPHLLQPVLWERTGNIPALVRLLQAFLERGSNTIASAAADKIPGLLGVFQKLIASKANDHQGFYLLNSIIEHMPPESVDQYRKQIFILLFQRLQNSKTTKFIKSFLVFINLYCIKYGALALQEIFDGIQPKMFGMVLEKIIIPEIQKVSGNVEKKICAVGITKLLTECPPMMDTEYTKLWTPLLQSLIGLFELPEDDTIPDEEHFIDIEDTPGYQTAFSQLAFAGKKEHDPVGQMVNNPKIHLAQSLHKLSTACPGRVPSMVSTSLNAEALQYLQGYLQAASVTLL
UniProt Q07021, residues 74-282: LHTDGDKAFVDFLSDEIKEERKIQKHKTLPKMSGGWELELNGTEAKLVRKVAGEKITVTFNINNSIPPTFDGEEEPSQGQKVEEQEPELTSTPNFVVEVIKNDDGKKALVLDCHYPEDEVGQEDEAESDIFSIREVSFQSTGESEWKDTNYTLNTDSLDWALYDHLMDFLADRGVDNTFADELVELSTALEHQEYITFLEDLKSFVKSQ
UniProt Q12905: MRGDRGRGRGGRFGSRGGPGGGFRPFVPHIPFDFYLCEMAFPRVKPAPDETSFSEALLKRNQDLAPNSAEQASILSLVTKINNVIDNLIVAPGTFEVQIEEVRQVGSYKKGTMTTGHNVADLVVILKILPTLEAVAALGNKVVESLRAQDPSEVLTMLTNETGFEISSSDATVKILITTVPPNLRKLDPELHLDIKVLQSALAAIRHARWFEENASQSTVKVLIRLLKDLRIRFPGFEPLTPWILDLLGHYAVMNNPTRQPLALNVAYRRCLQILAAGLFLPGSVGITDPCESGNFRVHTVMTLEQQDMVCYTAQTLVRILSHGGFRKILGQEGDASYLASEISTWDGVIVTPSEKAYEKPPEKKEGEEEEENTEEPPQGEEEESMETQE
Lamin C, endogenous (P02545-2, form named): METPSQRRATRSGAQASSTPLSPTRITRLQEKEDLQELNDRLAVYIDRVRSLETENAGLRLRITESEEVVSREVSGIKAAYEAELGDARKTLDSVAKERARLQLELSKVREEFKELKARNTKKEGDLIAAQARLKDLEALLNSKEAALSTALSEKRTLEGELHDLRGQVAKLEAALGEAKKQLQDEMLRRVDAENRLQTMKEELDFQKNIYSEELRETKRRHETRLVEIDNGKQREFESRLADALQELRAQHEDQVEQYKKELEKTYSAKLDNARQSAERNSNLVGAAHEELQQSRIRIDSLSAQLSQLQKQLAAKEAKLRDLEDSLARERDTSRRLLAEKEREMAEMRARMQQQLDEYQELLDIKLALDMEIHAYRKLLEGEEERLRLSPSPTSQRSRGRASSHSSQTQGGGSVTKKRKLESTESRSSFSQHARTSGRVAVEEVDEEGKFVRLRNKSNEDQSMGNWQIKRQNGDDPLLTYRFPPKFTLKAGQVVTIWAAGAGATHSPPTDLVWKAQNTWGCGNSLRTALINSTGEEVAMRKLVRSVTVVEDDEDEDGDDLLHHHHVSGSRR

How the values were obtained:
HaloTag-DUX4 (human) [1] = target: HaloTag-DUX4 (human) (UniProt Q9UBX2); assay: affinity purification with mass spectrometry; HaloTag fusions expressed in human muscle cells (TE671 in S1 Fig); extract bound to HaloLink resin 96 h at 4 °C in 50 mM HEPES pH 7.5, 150 mM NaCl, 0.5 mM EDTA, 0.005% Igepal; release by TEV; LC-MS/MS; proteins found with HaloTag-eGFP removed; at least 2 peptides
HaloTag-DUX4c (human) = HaloTag-DUX4c (human) (UniProt Q6RFH8); assay: as above
[2] = target: DUX4 (bait of a co-purification or pull-down with mass spectrometry; HaloTag-DUX4 or GST-DUX4, not told which) (human) (UniProt Q9UBX2); assay: affinity purification with mass spectrometry; putative partners named in the text without the method; they are in none of the two-hybrid tables, so HaloTag co-purification or GST-DUX4 pull-down (lists in S3 and S4 Tables)
HaloTag-DUX4term (human) = HaloTag-DUX4term (human) (UniProt Q9UBX2); assay: affinity purification with mass spectrometry; HaloTag fusions expressed in human muscle cells (TE671 in S1 Fig); extract bound to HaloLink resin 96 h at 4 °C in 50 mM HEPES pH 7.5, 150 mM NaCl, 0.5 mM EDTA, 0.005% Igepal; release by TEV; LC-MS/MS; proteins found with HaloTag-eGFP removed; at least 2 peptides
[3] = target: Glutathione-S-transferase (GST)-tagged DUX4 (pGEX-6p-1) (human) (UniProt Q9UBX2); assay: affinity purification with mass spectrometry; purified GST-DUX4 and Glutathione Sepharose 4B with 500 μg DNase-treated lysate of HEK293 cells or human myoblasts overnight at 4 °C in 150 mM NaCl, 5 mM MgCl2, 1 mM DTT, 25 mM Hepes pH 7.5; tandem MS of whole lanes; partners of GST omitted; at least 2 peptides; only the target purified
HaloTag-DUX4 (human) [4] = target: HaloTag-DUX4 (human) (UniProt Q9UBX2); assay: affinity purification with mass spectrometry; HaloTag fusions expressed in human muscle cells (TE671 in S1 Fig); extract bound to HaloLink resin 96 h at 4 °C in 50 mM HEPES pH 7.5, 150 mM NaCl, 0.5 mM EDTA, 0.005% Igepal; release by TEV; LC-MS/MS; proteins found with HaloTag-eGFP removed; at least 2 peptides; remark: listed apart in the source
[5] = target: DUX4 (bait of a co-purification or pull-down with mass spectrometry; HaloTag-DUX4 or GST-DUX4, not told which) (human) (UniProt Q9UBX2); assay: affinity purification with mass spectrometry; putative partners named in the text without the method; they are in none of the two-hybrid tables, so HaloTag co-purification or GST-DUX4 pull-down (lists in S3 and S4 Tables); remark: listed apart in the source

Q: With “desmin, endogenous in human muscle cells (from UniProt P17661 1-470)” as the molecule, how does the binding (HaloTag-DUX4 (human) [1]) read?
A: binds

Q: Which results are given for “FUS, endogenous in human muscle cells (from UniProt P35637 1-526)”?
A: binding (HaloTag-DUX4 (human) [1]): binds; binding (HaloTag-DUX4c (human)): binds

Q: For “MYH9 (MYH II-A), endogenous (from UniProt P35579 1-1960)”, which binding (HaloTag-DUX4 (human) [1]) is on record?
A: binds

Q: Which binding [2] does the source give for “exportin 2, endogenous (from UniProt P55060 1-971)” here?
A: binds

Q: “C1QBP, endogenous in human cells (from UniProt Q07021 74-282)” was tested. Which binding (HaloTag-DUX4 (human) [1]) did it give?
A: binds

Q: What about the binding (HaloTag-DUX4c (human)) of the same molecule?
A: binds

Q: What about the binding (HaloTag-DUX4term (human)) of the same molecule?
A: no binding

Q: What about the binding [3] of the same molecule?
A: binds

Q: With “MYH10/NMMH II-B, endogenous (from UniProt P35580 1-1976)” as the molecule, how does the binding (HaloTag-DUX4 (human) [1]) read?
A: binds

Q: How did the binding [2] turn out when “ILF2, endogenous (from UniProt Q12905 1-390)” was run?
A: binds

Q: Which binding [2] does the source give for “Lamin C, endogenous (from UniProt P02545-2 1-572)” here?
A: binds

B1: NONO, endogenous (protein, UniProt Q15233 1-471)
chain: MQSNKTFNLEKQNHTPRKHHQHHHQQQHHQQQQQQPPPPPIPANGQQASSQNEGLTIDLKNFRKPGEKTFTQRSRLFVGNLPPDITEEEMRKLFEKYGKAGEVFIHKDKGFGFIRLETRTLAEIAKVELDNMPLRGKQLRVRFACHSASLTVRNLPQYVSNELLEEAFSVFGQVERAVVIVDDRGRPSGKGIVEFSGKPAARKALDRCSEGSFLLTTFPRPVTVEPMDQLDDEEGLPEKLVIKNQQFHKEREQPPRFAQPGSFEYEYAMRWKALIEMEKQQQDQVDRNIKEAREKLEMEMEAARHEHQVMLMRQDLMRRQEELRRMEELHNQEVQKRKQLELRQEEERRRREEEMRRQQEEMMRRQQEGFKGTFPDAREQEIRMGQMAMGGAMGINNRGAMPPAPVPAGTPAPPGPATMMPDGTLGLTPPTTERFGQAATMEGIGAIGGTPPAFNRAAPGAEFAPNKRRRY
Q: B1 was tested. Which binding (HaloTag-DUX4 (human) [4]) did it give?
A: binds

B2: ILF3, endogenous (protein, UniProt Q12906 1-894)
chain: MRPMRIFVNDDRHVMAKHSSVYPTQEELEAVQNMVSHTERALKAVSDWIDEQEKGSSEQAESDNMDVPPEDDSKEGAGEQKTEHMTRTLRGVMRVGLVAKGLLLKGDLDLELVLLCKEKPTTALLDKVADNLAIQLAAVTEDKYEILQSVDDAAIVIKNTKEPPLSLTIHLTSPVVREEMEKVLAGETLSVNDPPDVLDRQKCLAALASLRHAKWFQARANGLKSCVIVIRVLRDLCTRVPTWGPLRGWPLELLCEKSIGTANRPMGAGEALRRVLECLASGIVMPDGSGIYDPCEKEATDAIGHLDRQQREDITQSAQHALRLAAFGQLHKVLGMDPLPSKMPKKPKNENPVDYTVQIPPSTTYAITPMKRPMEEDGEEKSPSKKKKKIQKKEEKAEPPQAMNALMRLNQLKPGLQYKLVSQTGPVHAPIFTMSVEVDGNSFEASGPSKKTAKLHVAVKVLQDMGLPTGAEGRDSSKGEDSAEETEAKPAVVAPAPVVEAVSTPSAAFPSDATAEQGPILTKHGKNPVMELNEKRRGLKYELISETGGSHDKRFVMEVEVDGQKFQGAGSNKKVAKAYAALAALEKLFPDTPLALDANKKKRAPVPVRGGPKFAAKPHNPGFGMGGPMHNEVPPPPNLRGRGRGGSIRGRGRGRGFGGANHGGYMNAGAGYGSYGYGGNSATAGYSQFYSNGGHSGNASGGGGGGGGGSSGYGSYYQGDNYNSPVPPKHAGKKQPHGGQQKPSYGSGYQSHQGQQQSYNQSPYSNYGPPQGKQKGYNHGQGSYSYSNSYNSPGGGGGSDYNYESKFNYSGSGGRSGGNSYGSGGASYNPGSHGGYGGGSGGGSSYQGKQGGYSQSNYNSPGSGQNYSGPPSSYQSSQGGYGRNADHSMNYQYR
Q: For B2, which binding [5] is on record?
A: binds

B3: SRSF5/SRp40, endogenous (protein, UniProt Q13243 1-272)
chain: MSGCRVFIGRLNPAAREKDVERFFKGYGRIRDIDLKRGFGFVEFEDPRDADDAVYELDGKELCSERVTIEHARARSRGGRGRGRYSDRFSSRRPRNDRRNAPPVRTENRLIVENLSSRVSWQDLKDFMRQAGEVTFADAHRPKLNEGVVEFASYGDLKNAIEKLSGKEINGRKIKLIEGSKRHSRSRSRSRSRTRSSSRSRSRSRSRSRKSYSRSRSRSRSRSRSKSRSVSRSPVPEKSQKRGSSSRSKSPASVDRQRSRSRSRSRSVDSGN
Q: How did the binding [5] turn out when B3 was run?
A: binds

B4: SRSF3/SRp20, endogenous (protein, UniProt P84103 1-164)
chain: MHRDSCPLDCKVYVGNLGNNGNKTELERAFGYYGPLRSVWVARNPPGFAFVEFEDPRDAADAVRELDGRTLCGCRVRVELSNGEKRSRNRGPPPSWGRRPRDDYRRRSPPPRRRSPRRRSFSRSRSRSLSRDRRRERSLSRERNHKPSRSFSRSRSRSRSNERK
Q: Which binding [5] does the source give for B4 here?
A: binds

Like-named read-outs stand apart in the source and are kept apart here. Results are given in words; binding and its absence hold for the method and conditions named. Binding seen in cells or lysates may run through a third protein. A yes stands for co-enrichment or nearness to the bait. Other partners may have been found. For some of these results: A no says only that the protein was not detected with the bait.
